Test results: patent US20090048117A1, “MODULATION OF IMMUNE SYSTEM FUNCTION BY MODULATION OF POLYPEPTIDE ARGININE METHYLTRANSFERASES” (President and Fellows of Harvard College, priority 2003, published 2009)
These are yes or no findings as the source states them, for the method shown. Some entries that bind do so weakly or less than the wild type.

Sequences of proteins named here, by UniProt entry; tags and fusion partners are left off. A change or cut given only in a name is not applied to a line headed by its entry.
UniProt Q9JIF0: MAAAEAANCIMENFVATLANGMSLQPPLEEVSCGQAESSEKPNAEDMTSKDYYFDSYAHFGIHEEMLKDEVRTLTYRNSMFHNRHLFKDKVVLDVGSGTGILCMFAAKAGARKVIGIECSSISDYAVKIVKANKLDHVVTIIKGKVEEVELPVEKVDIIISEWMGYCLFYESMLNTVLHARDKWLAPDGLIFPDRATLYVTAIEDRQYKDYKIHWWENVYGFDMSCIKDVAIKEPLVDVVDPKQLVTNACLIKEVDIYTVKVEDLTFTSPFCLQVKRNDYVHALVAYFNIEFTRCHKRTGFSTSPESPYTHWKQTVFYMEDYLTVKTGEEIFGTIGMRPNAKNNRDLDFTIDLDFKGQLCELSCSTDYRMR

Molecular target: T1, NFATc2 (form of the construct not stated)
T1 sequence: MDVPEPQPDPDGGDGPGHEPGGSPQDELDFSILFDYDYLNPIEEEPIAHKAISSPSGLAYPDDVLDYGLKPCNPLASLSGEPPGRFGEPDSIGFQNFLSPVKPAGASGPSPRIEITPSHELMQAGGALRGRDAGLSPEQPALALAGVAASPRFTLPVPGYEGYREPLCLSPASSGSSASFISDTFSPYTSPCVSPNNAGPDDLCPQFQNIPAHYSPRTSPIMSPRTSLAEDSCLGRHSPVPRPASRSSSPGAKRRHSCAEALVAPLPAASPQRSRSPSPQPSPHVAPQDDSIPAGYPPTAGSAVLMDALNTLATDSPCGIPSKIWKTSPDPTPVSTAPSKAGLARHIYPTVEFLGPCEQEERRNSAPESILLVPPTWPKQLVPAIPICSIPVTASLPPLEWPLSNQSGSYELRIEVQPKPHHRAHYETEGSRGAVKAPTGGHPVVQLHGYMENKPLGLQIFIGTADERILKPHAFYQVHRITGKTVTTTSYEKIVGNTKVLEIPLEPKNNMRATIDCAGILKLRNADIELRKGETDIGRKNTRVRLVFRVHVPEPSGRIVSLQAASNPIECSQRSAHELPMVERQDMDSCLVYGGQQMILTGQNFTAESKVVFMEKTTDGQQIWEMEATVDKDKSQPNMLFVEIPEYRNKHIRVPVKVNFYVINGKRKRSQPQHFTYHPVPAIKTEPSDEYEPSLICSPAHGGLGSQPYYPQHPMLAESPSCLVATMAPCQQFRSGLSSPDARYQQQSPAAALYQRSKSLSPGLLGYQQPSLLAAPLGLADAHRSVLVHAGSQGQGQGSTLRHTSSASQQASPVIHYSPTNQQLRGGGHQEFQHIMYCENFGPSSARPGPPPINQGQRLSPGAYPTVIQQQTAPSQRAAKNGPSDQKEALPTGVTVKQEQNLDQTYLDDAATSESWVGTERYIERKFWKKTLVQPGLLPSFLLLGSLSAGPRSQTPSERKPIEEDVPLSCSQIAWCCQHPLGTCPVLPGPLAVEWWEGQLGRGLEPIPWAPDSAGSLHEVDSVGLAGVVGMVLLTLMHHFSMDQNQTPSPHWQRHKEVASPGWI
Experiment: association assay not described; in the presence of full-length NIP45 or ΔN-NIP45

binding: binds
Substance: PRMT1 (form of the construct not stated) (from UniProt Q9JIF0 1-371) (enzyme)
